This passage reports binding results from patent publication US20210163598A1 (BEIJING PROTEOME RESEARCH CENTER, published 2021).

Amino acid sequences for entries named in this document (tags omitted). A change or cut given only in a name is not applied to a line headed by its entry.
UniProt O00478: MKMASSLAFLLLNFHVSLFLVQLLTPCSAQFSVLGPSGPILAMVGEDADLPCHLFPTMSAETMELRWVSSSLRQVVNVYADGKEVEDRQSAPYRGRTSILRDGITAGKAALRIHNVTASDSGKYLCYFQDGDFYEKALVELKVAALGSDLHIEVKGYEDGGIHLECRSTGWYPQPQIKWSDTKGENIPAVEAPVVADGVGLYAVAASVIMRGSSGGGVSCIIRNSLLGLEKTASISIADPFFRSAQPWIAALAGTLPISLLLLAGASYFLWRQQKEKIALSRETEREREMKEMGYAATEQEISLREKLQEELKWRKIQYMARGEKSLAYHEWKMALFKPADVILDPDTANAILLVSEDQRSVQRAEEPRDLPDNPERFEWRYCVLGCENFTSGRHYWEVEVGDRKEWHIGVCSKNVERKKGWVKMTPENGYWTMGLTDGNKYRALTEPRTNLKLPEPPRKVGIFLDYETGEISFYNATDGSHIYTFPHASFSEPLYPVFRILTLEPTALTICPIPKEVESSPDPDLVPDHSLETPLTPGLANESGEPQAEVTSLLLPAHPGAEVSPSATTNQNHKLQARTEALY

The target in test [1] is BTN3A3 (Butyrophilin subfamily 3 member A3) expressed on the cell surface (BT474-BTN3A3; MDA-MB-231) (human) (UniProt O00478). Briefly: flow cytometric adhesion assay (FIG. 7(b)).
The target is the same in test [2]. Put plainly: flow cytometric adhesion assay. (In flow cytometry, cells or beads pass a laser one at a time.)

Results are given in words; binding and its absence hold for the method and conditions named. Some entries that bind do so weakly or less than the wild type.

B1: mouse LSECtin-Fc protein (Fc fusion, UniProt Q8BNX1 52-294, looked up)
chain: LLSSASSKLRVLLSHQDLLRTNASEQKMTLSSLKDDIGACRNCCSVTKAQLQTTLAEFKDIQAKLMEQESILKELQERVTQDLAKASRDRENIRSELFQALEAVKRQNSSCEQCPPSWLPFQGSCYYFSETQATWDTAQSYCGGQGAHLVIVRGLNEQGFLSQHTRGRGYWLGLRAVRHLNKIQGYRWVDGASLNFSHWNSGEPNDSRGHEDCIMMLHSGLWNDAPCTNERDGWICEKRSSCY
notes: also called murine LSECtin-Fc; murine LSECtin; not shown: Fc part
On to B1, for which the binding result in test [1] and in test [2] was “binds” in each case.
